Source: PMC9948308, “DnaK and DnaJ proteins from Hsp70/40 family are involved in Rubisco biosynthesis in Synechocystis sp. PCC6803 and sustain the enzyme assembly in a heterologous system” (BMC Plant Biology, 2023)
No constants are given. Whether binding was seen depends on the method and setting. Some binding calls cover weakened binding; strength is not graded here. For some of these results: Sequences can lack the tags named with a protein. Blank lines part the entries; values can stand above or below the molecule they belong to.

By UniProt entry, the sequences of proteins in these tests, tags left out.
UniProt P54205: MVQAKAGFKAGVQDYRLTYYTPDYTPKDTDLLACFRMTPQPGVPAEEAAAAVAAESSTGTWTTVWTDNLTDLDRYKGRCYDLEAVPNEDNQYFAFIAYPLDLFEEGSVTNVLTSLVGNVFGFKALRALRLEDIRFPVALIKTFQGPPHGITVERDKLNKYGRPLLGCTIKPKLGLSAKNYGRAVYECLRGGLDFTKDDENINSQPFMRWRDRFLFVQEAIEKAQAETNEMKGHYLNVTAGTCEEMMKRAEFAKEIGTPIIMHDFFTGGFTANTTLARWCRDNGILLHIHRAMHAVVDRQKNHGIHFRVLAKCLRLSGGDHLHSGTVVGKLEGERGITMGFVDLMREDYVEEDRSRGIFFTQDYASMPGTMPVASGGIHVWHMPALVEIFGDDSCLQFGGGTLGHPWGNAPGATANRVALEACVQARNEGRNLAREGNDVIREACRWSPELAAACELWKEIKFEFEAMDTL
UniProt P22358: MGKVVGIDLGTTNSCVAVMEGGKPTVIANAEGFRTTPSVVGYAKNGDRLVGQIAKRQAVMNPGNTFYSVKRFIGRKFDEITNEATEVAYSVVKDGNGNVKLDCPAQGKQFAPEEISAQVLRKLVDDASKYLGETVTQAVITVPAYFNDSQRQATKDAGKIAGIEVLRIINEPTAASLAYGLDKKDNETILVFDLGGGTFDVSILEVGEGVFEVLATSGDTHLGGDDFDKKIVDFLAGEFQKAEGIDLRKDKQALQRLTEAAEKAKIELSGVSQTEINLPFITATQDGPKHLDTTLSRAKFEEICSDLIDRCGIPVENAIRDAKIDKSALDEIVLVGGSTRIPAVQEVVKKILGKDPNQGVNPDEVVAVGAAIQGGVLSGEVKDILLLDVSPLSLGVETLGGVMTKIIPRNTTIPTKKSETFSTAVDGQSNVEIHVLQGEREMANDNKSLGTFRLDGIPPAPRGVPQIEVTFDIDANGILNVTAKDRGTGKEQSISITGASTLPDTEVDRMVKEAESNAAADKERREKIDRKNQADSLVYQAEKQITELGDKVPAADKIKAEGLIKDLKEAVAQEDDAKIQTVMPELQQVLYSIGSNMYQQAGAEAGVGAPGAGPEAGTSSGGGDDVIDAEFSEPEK

What was measured:
[1] = molecular target: RbcL (Rubisco large subunit) from Synechocystis sp. PCC6803, unfolded, isolated from inclusion bodies (Synechocystis sp. PCC6803) (UniProt P54205); assay: condition: only with ATP alone, without DnaJ Sll1384; 5 µM DnaK2; 1,8-ANS displacement assay (fluorescence); DnaK2 (final 5 µM) added to unfolded RbcL with 1,8-ANS, ATP (5 mM) alone in the starting mixture, no DnaJ; both purified
[2] = molecular target: RbcL (Rubisco large subunit) from Synechocystis sp. PCC6803, unfolded, isolated from inclusion bodies (Synechocystis sp. PCC6803) (UniProt P54205); assay: 1,8-ANS displacement assay (fluorescence); DnaK2 tested together with DnaJ Sll1384 on unfolded RbcL with 1,8-ANS, with or without ATP; both purified
[3] = molecular target: RbcL, endogenous in Synechocystis sp. PCC 6803 (Synechocystis sp. PCC 6803 (endogenous in Synechocystis sp. PCC 6803)) (UniProt P54205); assay: native gel or EMSA; soluble fraction of Synechocystis sp. PCC 6803 (wild type, Δraf1 and Δsll1384 strains); native PAGE, western blots with anti-RbcL, anti-DnaK, anti-DnaJ, anti-Raf1
[4] = molecular target: RbcL from the LXS operon of Synechocystis sp. PCC6803, co-expressed in E. coli (Synechocystis sp. PCC6803) (UniProt P54205); assay: native gel or EMSA; soluble fraction of E. coli co-expressing the LXS operon with DnaK2, DnaJ Sll1384 and/or Raf1; 4-15% native PAGE, western blots
[5] = molecular target: RbcL (Rubisco large subunit) from Synechocystis sp. PCC6803, unfolded, isolated from inclusion bodies (Synechocystis sp. PCC6803) (UniProt P54205); assay: 1,8-ANS displacement assay (fluorescence); a single DnaJ homolog (final 5 µM) added to unfolded RbcL pre-equilibrated with 1,8-ANS; emission 470 nm, excitation 390 nm; 50 mM phosphate buffer pH 7, 0.5 M GndHCl; both purified

- binding [1]: no binding
- binding [2]: binds weakly
Molecule: DnaK2 from Synechocystis sp. PCC6803, His-tagged (from UniProt P22358 1-636)

- binding [3]: binds
Molecule: DnaK2, endogenous in Synechocystis sp. PCC 6803 (from UniProt P22358 1-636)

- binding [4]: binds
Molecule: DnaK2 of Synechocystis sp. PCC6803, co-expressed in E. coli from pCDFDnaK2 (from UniProt P22358 1-636)

- binding [4]: binds
B1: RbcS from the LXS operon of Synechocystis sp. PCC6803, co-expressed in E. coli (protein, UniProt P54206 1-113)
chain: MKTLPKERRYETLSYLPPLTDQQIAKQVEFLLDQGFIPGVEFEEDPQPETHFWTMWKLPFFGGATANEVLAEVRECRSENPNCYIRVIGFDNIKQCQTVSFIVHKPNQNQGRY

- binding [5]: no binding (tested: 5 µM)
B2: DnaJ Sll1933 from Synechocystis sp. PCC6803, His-tagged (protein, UniProt P73097 1-307)
chain: MEQVRNYYQILGVPRNATAEEIKKSFRKLARQYHPDVNPNDKTAEEKFKDINEAYDVLSDETKRRELDSRLFGRFRRPPTSRFSPNSNGGRSPNGTSVNGQVRTPTGRTGTRQPAQSWQDFSETRRTKVVSPARPVPRDVEANLTLPLEKAYRGGKERIRLEDGRSLEVEMPGGMGDGQRIRLKQQGINGGDLYLKINLSPHPLFTLQGTDIACQVPVTPSEAILGGAIEVMTIDGLVKMTVPAGLKNGQKLRLAKKGFPNNQGDRGDQLVEIRVEIPPEPSPEELELYRRIREKETFNPRQKFFDF

- binding [5]: no binding (tested: 5 µM)
B3: DnaJ Slr0093 from Synechocystis sp. PCC6803, His-tagged (protein, UniProt P50027 1-332)
chain: MASTDFKDYYQILGVTKTASEAEIKKQFRKLALKYHPDKNPGDKAAEEKFKEISEAYEVLSDPEKRQKYDQFGRYWQQAGTAGQPSGSYGPGVGVDFGGFDFSQYGNFDEFINELLGRFNTPGGGGQRTSYSYSTGGPGFNDFGGFGNAQAPAGDREATLQLTLAEAFRGVEKRLNLGEEMVTVRIPAGAKNGSRVRVRGKGMASPYGQRGDLYLNLQLTPHPFFQFEGDNLVCELAIAPDEAVLGADISVPTPDGMVRMKVPAGVKSGQSLRLKGKGWPNPKQGRGDQLVRLIITAPKNPSAIERECYEKIQAQRTENPRQAVEKYANLLA
